# This is one part of the list. Many values rest on one well or one pass, so single values are uncertain.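 Imaging used 1,536-well plates; nuclei positive for cleaved PARP by antibody were divided by total DNA-stained nuclei to yield the apoptosis fraction. Doses for screening kept most cells viable, and cell lines differ markedly in resting and induced cleaved-PARP levels.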
# Legend:
# Assay in all cases: cleaved PARP positive nuclei fraction relative to DMSO control; melanoma cells; higher = more apoptosis
# Details in all cases: library dose: low library concentration; 72 h
# [1] = tested on: MZ2-MEL
# [2] = tested on: MeWo
# [3] = tested on: RPMI7951
# [4] = tested on: RVH-421
# [5] = tested on: SkMel28
# [6] = tested on: SkMel2
# [7] = tested on: SkMel30
# [8] = tested on: SkMel5
# [9] = tested on: UACC257
# [10] = tested on: UACC62
SMILES,cleaved PARP positive nuclei fraction [1],cleaved PARP positive nuclei fraction [2],cleaved PARP positive nuclei fraction [3],cleaved PARP positive nuclei fraction [4],cleaved PARP positive nuclei fraction [5],cleaved PARP positive nuclei fraction [6],cleaved PARP positive nuclei fraction [7],cleaved PARP positive nuclei fraction [8],cleaved PARP positive nuclei fraction [9],cleaved PARP positive nuclei fraction [10]
"NC1(c2ccc(-c3nc4ccn5c(=O)[nH]nc5c4cc3-c3ccccc3)cc2)CCC1 + O=C(CCCCCCC(=O)Nc1ccccc1)NO [vorinostat] (first compound 0.4 µM, partner dose 0.08 µM)",121%,212%,120%,83.2%,130%,69.4%,45.2%,78.3%,154%,42.9%
"NC1(c2ccc(-c3nc4ccn5c(=O)[nH]nc5c4cc3-c3ccccc3)cc2)CCC1 + CCCCCCCCCCCC1=C(O)C(=O)C=C(O)C1=O [Embelin] (first compound 0.4 µM, partner dose 1.2 µM)",176%,60.2%,131%,25.5%,122%,46.7%,85.6%,81.5%,99.2%,100%
"C[C@]1(O)C[C@@H](c2nc(-c3ccc4ccc(-c5ccccc5)nc4c3)c3c(N)nccn32)C1 + NC(=O)Nc1cc(-c2cccc(F)c2)sc1C(=O)N[C@H]1CCCNC1 [AZD7762] (first compound 0.4 µM, partner dose 0.02 µM)",175%,49.9%,65.6%,45.5%,33.1%,129%,155%,110%,54.1%,44.6%
"NC(=O)c1ccc(N(C(N)=O)c2c(F)cccc2F)nc1-c1ccc(F)cc1F + COc1ccc(-c2ccc3c(N4CCOCC4)nc(N4C[C@@H](C)O[C@@H](C)C4)nc3n2)cc1CO [KU0063794] (first compound 0.4 µM, partner dose 0.02 µM)",119%,48.2%,76.8%,83.4%,136%,49.2%,168%,77.8%,113%,57.9%
"CS(=O)(=O)c1ccc(C(=O)Nc2ccc(Cl)c(-c3ccccn3)c2)c(Cl)c1 [vismodegib] + O=C(Nc1ccccc1)c1cc([N+](=O)[O-])ccc1Cl [GW9662] (first compound 1 µM, partner dose 2 µM)",123%,42.3%,67.4%,104%,91.1%,93.6%,35.8%,75%,62.6%,94.5%
"COc1ccc(C2=N[C@@H](c3ccc(Cl)cc3)[C@@H](c3ccc(Cl)cc3)N2C(=O)N2CCNC(=O)C2)c(OC(C)C)c1 [Nutlin-3] + Cc1cc([N+](=O)[O-])ccc1NS(=O)(=O)c1cc(Cl)ccc1Cl [FH535] (first compound 0.1 µM, partner dose 1 µM)",142%,117%,86.7%,165%,75.9%,55%,87.1%,79.2%,99.9%,99.3%
"NC(=O)c1ccc(N(C(N)=O)c2c(F)cccc2F)nc1-c1ccc(F)cc1F + Cn1cc(/C=C2\C(=O)Nc3cccnc32)c2ccccc21 [GW441756] (first compound 0.4 µM, partner dose 0.4 µM)",114%,62.2%,96.8%,104%,85.5%,62.2%,75.7%,170%,120%,126%
"CN(c1ncccc1CNc1nc(Nc2ccc3c(c2)CC(=O)N3)ncc1C(F)(F)F)S(C)(=O)=O + CCCCCCCCCCCC1=C(O)C(=O)C=C(O)C1=O [Embelin] (first compound 0.08 µM, partner dose 1.2 µM)",104%,126%,46.4%,142%,81.6%,114%,65.3%,81.1%,95.4%,51.8%
"NC(=O)c1ccc(N(C(N)=O)c2c(F)cccc2F)nc1-c1ccc(F)cc1F + CC(C)(C)c1cnc(CSc2cnc(NC(=O)C3CCNCC3)s2)o1 [SNS-032] (first compound 0.4 µM, partner dose 0.01 µM)",67.6%,20.6%,34.1%,52.1%,32.9%,139%,121%,38.7%,25.5%,78.9%
"Cn1cnc2c(F)c(Nc3ccc(Br)cc3Cl)c(C(=O)NOCCO)cc21 [selumetinib] + COc1ccc2c(c1)CCC1C2CCC2(C)C(NCCCCCCN3C(=O)C=CC3=O)CCC12 [U73122] (first compound 0.015 µM, partner dose 0.4 µM)",195%,111%,113%,210%,83%,61.5%,97.9%,128%,63.1%,207%
"NC(=O)c1ccc(N(C(N)=O)c2c(F)cccc2F)nc1-c1ccc(F)cc1F + CCN(CC)CCCCNc1ncc2cc(-c3cc(OC)cc(OC)c3)c(NC(=O)NC(C)(C)C)nc2n1 [PD173074] (first compound 0.4 µM, partner dose 0.1 µM)",77.4%,87.4%,71.6%,118%,66.8%,66.8%,36.6%,67.5%,37.4%,67.3%
"Cn1cnc2c(F)c(Nc3ccc(Br)cc3Cl)c(C(=O)NOCCO)cc21 [selumetinib] + CN(NC(=O)CC(=O)NN(C)C(=S)c1ccccc1)C(=S)c1ccccc1 [STA4783] (first compound 0.015 µM, partner dose 0.006 µM)",472%,168%,51%,37.6%,87.6%,122%,118%,90.5%,159%,124%
"CC(=O)O[C@@]12CO[C@@H]1C[C@H](O)[C@@]1(C)C(=O)[C@H](O)C3=C(C)[C@@H](OC(=O)[C@H](O)[C@@H](NC(=O)OC(C)(C)C)c4ccccc4)C[C@@](O)([C@@H](OC(=O)c4ccccc4)[C@H]21)C3(C)C [Docetaxel] + NC(=O)Nc1cc(-c2cccc(F)c2)sc1C(=O)N[C@H]1CCCNC1 [AZD7762] (first compound 0.0001 µM, partner dose 0.02 µM)",1240%,1130%,182%,71.4%,146%,906%,233%,79.3%,211%,507%
"CC(=O)O[C@@]12CO[C@@H]1C[C@H](O)[C@@]1(C)C(=O)[C@H](O)C3=C(C)[C@@H](OC(=O)[C@H](O)[C@@H](NC(=O)OC(C)(C)C)c4ccccc4)C[C@@](O)([C@@H](OC(=O)c4ccccc4)[C@H]21)C3(C)C [Docetaxel] + C=CCn1c(=O)c2cnc(Nc3ccc(N4CCN(C)CC4)cc3)nc2n1-c1cccc(C(C)(C)O)n1 [MK1775] (first compound 0.0001 µM, partner dose 0.02 µM)",873%,219%,330%,112%,161%,477%,200%,107%,287%,238%
"Cn1sc(=O)n(Cc2ccccc2)c1=O + O=S(=O)(c1ccccc1)N(CC(F)(F)F)c1ccc(C(O)(C(F)(F)F)C(F)(F)F)cc1 [T0901317] (first compound 0.4 µM, partner dose 1.4 µM)",34.7%,84.5%,55.8%,97.8%,156%,242%,118%,88.4%,122%,159%
"C[C@@H](N)c1ccc(C(=O)Nc2ccnc3[nH]ccc23)cc1 + Oc1cc(-c2nc(-c3ccccc3)[nH]c2-c2ccncc2)ccc1Cl [L779450] (first compound 0.4 µM, partner dose 0.2 µM)",191%,21.1%,100%,223%,451%,61.4%,59.9%,167%,200%,301%
"CN(c1ncccc1CNc1nc(Nc2ccc3c(c2)CC(=O)N3)ncc1C(F)(F)F)S(C)(=O)=O + O=C(Nc1ccccc1)c1cc([N+](=O)[O-])ccc1Cl [GW9662] (first compound 0.08 µM, partner dose 2 µM)",133%,162%,46.3%,162%,102%,39.5%,82.8%,72.2%,279%,179%

# Single records, as listed above. Order of values: cleaved PARP positive nuclei fraction [1]	cleaved PARP positive nuclei fraction [2]	cleaved PARP positive nuclei fraction [3]	cleaved PARP positive nuclei fraction [4]	cleaved PARP positive nuclei fraction [5]	cleaved PARP positive nuclei fraction [6]	cleaved PARP positive nuclei fraction [7]	cleaved PARP positive nuclei fraction [8]	cleaved PARP positive nuclei fraction [9]	cleaved PARP positive nuclei fraction [10]
# NC1(c2ccc(-c3nc4ccn5c(=O)[nH]nc5c4cc3-c3ccccc3)cc2)CCC1 + O=C(CCCCCCC(=O)Nc1ccccc1)NO [vorinostat] (first compound 0.4 µM, partner dose 0.08 µM) in the list: 121%	212%	120%	83.2%	130%	69.4%	45.2%	78.3%	154%	42.9%
# NC(=O)c1ccc(N(C(N)=O)c2c(F)cccc2F)nc1-c1ccc(F)cc1F + CC(C)(C)c1cnc(CSc2cnc(NC(=O)C3CCNCC3)s2)o1 [SNS-032] (first compound 0.4 µM, partner dose 0.01 µM) in the list: 67.6%	20.6%	34.1%	52.1%	32.9%	139%	121%	38.7%	25.5%	78.9%
